The nature of this data set: peptide synthesis. Particulars: for step yield: late stage modification step; for conjugation yield: conjugation step.

With AF HPA-Boc-L-Alanine, the step yield turned out to be 75 % yield.

As for “XMT-A4 Dimethyl-diaminoethyl-PABA-Val Cit-NH2”, the conjugation yield stood at 54% yield.

“XMT-A4-dimethyldiamino ethyl-PABA-Val Cit-Maleimide”: the conjugation yield is given as 46% yield.

XMT-A4 N-Boc-D-valine ester displayed a step yield of 50% yield.

LTVSPNY-Adoa- PEG12-Thioester registered a conjugation yield of 51 % yield.

These data come from patent EP2928504B1 (Mersana Therapeutics, Inc., priority 2012, dated 2014).
